Experimental data as given in patent US7319140.
Results are given in words; binding and its absence hold for the method and conditions named. In cells and extracts the contact can be indirect. Some binding calls cover weakened binding; strength is not graded here.

By UniProt entry, the sequences of proteins in these tests, tags left out. Where a name states a change or a piece, a line headed by the entry shows the natural chain unless it says otherwise. Residues count along the entry.
UniProt P43631, residues 22-304: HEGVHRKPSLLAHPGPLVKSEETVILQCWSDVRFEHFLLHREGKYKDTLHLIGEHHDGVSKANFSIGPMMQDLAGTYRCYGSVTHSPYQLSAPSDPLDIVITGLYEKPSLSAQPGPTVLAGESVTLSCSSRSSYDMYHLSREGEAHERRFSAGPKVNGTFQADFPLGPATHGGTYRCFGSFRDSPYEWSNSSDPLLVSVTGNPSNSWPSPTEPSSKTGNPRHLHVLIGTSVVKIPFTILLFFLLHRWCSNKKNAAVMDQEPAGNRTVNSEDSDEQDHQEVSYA
UniProt O43914: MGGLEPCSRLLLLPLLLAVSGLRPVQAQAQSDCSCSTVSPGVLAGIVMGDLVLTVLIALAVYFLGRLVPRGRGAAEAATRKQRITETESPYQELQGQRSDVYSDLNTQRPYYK

Columns and labels:
KIR2DS2 (human) [1] = target: KIR2DS2 (human) (UniProt P43631); test: summary of the co-immunoprecipitations
KIR2DS2 (human) [2] = target: KIR2DS2 (human) (UniProt P43631); test: summary of the co-immunoprecipitation with KIR2DS2
KIR2DS2 (human) [3] = target: KIR2DS2 (human) (UniProt P43631); test: reciprocal co-immunoprecipitation from 125I-labelled 1% digitonin lysates of Ba/F3 transfectants

- binding (KIR2DS2 (human) [1]): binds
- binding (KIR2DS2 (human) [2]): binds
- binding (KIR2DS2 (human) [3]): binds
Substance: DAP12-FLAG (human DAP12 with a FLAG epitope tag at the N terminus) (from UniProt O43914 28-113) (receptor)
